Measurements taken from patent publication US20040185568A1, “Sensor storage solution, sensor calibration solution and sensor” (TANITA CORPORATION, priority 2003, published 2004).

Assay: Analysis of the sensor surfaces after immersion
Settings: sensors immersed in storage solutions 1 and 2

Compound	attachment of the compound to the sensor surface
Cn1sccc1=O [2-methyl-4-isothiazolin-3-one]	attached to the sensors
Cn1sc(Cl)cc1=O [5-chloro-2-methyl-4-isothiazolin-3-one]	attached to the sensors
